For assay [1], the system named is MILI (PIWIL2) piRISC loaded with piRNA #1 (26 nt). Put plainly: pre-steady-state target cleavage rate (min^-1); higher = faster piRNA-guided slicing of the target. As to conditions: guide: piRNA #1 5'p-UGAGGUAGUAGGUUGUAUAGUAUCCA; auxiliary factor: 500 nM mouse GTSF1. In short, it runs like this: (§1)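 In this Cleave-'n-Seq assay, uncleaved targets were sequenced and normalised to depth and to weakly complementary targets. They came from a transcribed, DNA-blocked target RNA library […] mixed with 1 nM active affinity-purified piRISC carrying one synthetic guide, with or without 500 nM GTSF1 partner protein, in HEPES–potassium acetate buffer at 33 °C for 0–8 or 0–960 min. After three trials were pooled and k3 was capped at 0.0001 min^-1, the pre-steady-state cleavage rate was obtained from a burst-and-steady-state fit.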

Assay [2] deals with MIWI (PIWIL1) piRISC loaded with piRNA #1 (30 nt). The assay is described as above. As to conditions: guide: piRNA #1 5'p-UGAGGUAGUAGGUUGUAUAGUAUCCAGAGG; auxiliary factor: 500 nM mouse GTSF1. In short, it runs like this: as §1
For assay [3], the system named is EfPiwi piRISC loaded with piRNA #1 (26 nt). Put plainly: pre-steady-state target cleavage rate (min^-1); guide: piRNA #1 5'p-UGAGGUAGUAGGUUGUAUAGUAUCCA; MIWI and MILI are mouse PIWI proteins and EfPiwi is from a freshwater sponge; tags in brackets are library labels; higher = faster piRNA-guided slicing of the target. As to conditions: auxiliary factor: 500 nM Ephydatia muelleri Gtsf1. In short, it runs like this:
as §1

± gives the standard deviation. The list shows a part of the results, in another mix than the full data. Many entries were measured with a wide error.

Turning to GGAGUAGAUACUAUACAACCUACUACCUCA, the “pre-steady-state target cleavage rate” value in assay [1] is 0.186 ± 0.0093; in assay [2] it was 1.55 ± 0.074; in assay [3], 0.158 ± 0.057.
The matching figures for GGAGACCUAUGAUAUCAACCUACUACCUCA: 0.00173 ± 0.0042, 0.000253 ± 0.013 and 0.00158 ± 0.0045.
Take GGAGACCUAUGAUAACAACGUACUACCUGA: the “pre-steady-state target cleavage rate” value was 0.00117 ± 0.0053 in assay [1], 0.000215 ± 0.008 in assay [2] and 0.00134 ± 0.006 in assay [3].
In the same order, the values of GGAGACCUAUGAUAUGUUCAUACUACCUCA are under 0.0001, 0.000859 ± 0.0054 and 0.00113 ± 0.0063.
The matching figures for GGAGACCUAUGAUUUCAACCUACUACGUCA: 0.000311 ± 0.0072, 0.000562 ± 0.0032 and 0.000225 ± 0.012.
The matching figures for GGAGACCUAUGAUAUGUACGUACUACCUCA: 0.000774 ± 0.0062, 0.000748 ± 0.0049 and 0.000351 ± 0.0056.
As to GGAGACCUAUGAUAUCAACCAACUACCACA, the “pre-steady-state target cleavage rate” value in assay [1] is 0.000212 ± 0.018; in assay [2], 0.00013 ± 0.023; in assay [3], 0.000237 ± 0.026.
In the same order, the values of GGAGACCUAUGAUAUGUUGCUACUAGCCUCA are 0.000547 ± 0.016, 0.000557 ± 0.012 and 0.00107 ± 0.0046.
The matching figures for GGAGACCUAUGAAUACAACCUUCUACGUCA: 0.00102 ± 0.0062, 0.000496 ± 0.0038 and 0.000763 ± 0.0075.
The matching figures for GGAGACCUAUGAAUACAACCGUACUACCUCA: 0.00389 ± 0.003, 0.000878 ± 0.0056 and 0.00053 ± 0.016.
In the case of GGAGACCUAUGAAUACAUCCAACUACCUCA, the “pre-steady-state target cleavage rate” value in assay [1] stood at 0.00224 ± 0.0032; in assay [2], 0.000197 ± 0.013; in assay [3], 0.00024 ± 0.013.
The matching figures for GGAGACCUAUCUAUACAACGAUCUACCUCA: 0.000958 ± 0.0071, 0.000157 ± 0.016 and 0.000833 ± 0.0084.
The matching figures for GGAGACCUAACUAUACAUCCAACUACCUCA: 0.00526 ± 0.0061, 0.00429 ± 0.0053 and 0.00275 ± 0.0054.
The matching figures for GGAGACCUAUGAAUACAUCCUAGUACCUCA: 0.0023 ± 0.0027, 0.00016 ± 0.015 and 0.000247 ± 0.011.
Take GGAGUGGAUACUAUAGAACCUACUUCCUCA: the figures for the “pre-steady-state target cleavage rate” value in assay [1], in assay [2] and in assay [3] were 0.00147 ± 0.0034, 0.00111 ± 0.0044 and 0.00134 ± 0.0024, respectively.
In the same order, the values of GGAGACCUAUGAAUACAACCUAGUACGUCA are 0.000821 ± 0.0073, 0.000549 ± 0.006 and 0.00189 ± 0.0056.
In the case of GGAGACCUAUGAUAUCAACCAUCUACCUCA, the “pre-steady-state target cleavage rate” value was 0.000896 ± 0.0055 in assay [1], 0.000164 ± 0.013 in assay [2] and 0.00019 ± 0.014 in assay [3].
GGAGACCUAUGAUAUGUUGCUAGUACCUCA: the “pre-steady-state target cleavage rate” value in assay [1] was determined as 0.000351 ± 0.014; in assay [2] it was 0.000386 ± 0.012; in assay [3] it was 0.00044 ± 0.0091.
Regarding GGAGACCUAUGAAUACAACCUAGUUCCUCA, the “pre-steady-state target cleavage rate” value amounted to 0.000749 ± 0.0066 in assay [1], 0.000145 ± 0.013 in assay [2] and 0.000662 ± 0.0061 in assay [3].
Take GGAGACCUAUGAUUACAACCUAGUACCUGA: the “pre-steady-state target cleavage rate” value is 0.000156 ± 0.011 in assay [1], 0.000115 ± 0.013 in assay [2] and 0.000262 ± 0.0079 in assay [3].
The matching figures for GGAGACCUAUGAUAUGUUGCUACUUCCUCA: 0.000276 ± 0.011, 0.000468 ± 0.0061 and 0.00114 ± 0.0055.
The matching figures for GGAGACCUAUGAUAUGUUGGUUCUACCACA: 0.000584 ± 0.011, 0.00122 ± 0.0058 and 0.000713 ± 0.0071.
The matching figures for GGAGACCUAUGAUUACAACCUAGCUACCUCA: 0.00386 ± 0.0032, 0.00153 ± 0.004 and 0.00117 ± 0.0072.
Regarding GGAGACCUAUGAUAUCAACCUAGUACGUCA, the “pre-steady-state target cleavage rate” value in assay [1] amounted to 0.000236 ± 0.015; in assay [2], 0.000179 ± 0.01; in assay [3], 0.000447 ± 0.0076.
The matching figures for GGAGACCUAUGAUUACAACCGACUACCUCA: 0.00325 ± 0.0034, 0.000607 ± 0.0078 and 0.000692 ± 0.0097.
In the same order, the values of GGAGUGGAUACUAUACAACCCUACUACCUCA are 0.00153 ± 0.0044, 0.000176 ± 0.021 and 0.00375 ± 0.0023.
In the same order, the values of GGAGACCUAUGAUUACAACCUACCUACCUCA are 0.00646 ± 0.0028, 0.00168 ± 0.0029 and 0.000959 ± 0.0086.
In the case of GGAGACCUAUGUAUACAACCGACUACCUCA, the results for the “pre-steady-state target cleavage rate” value in assay [1], in assay [2] and in assay [3] were 0.00448 ± 0.0021, 0.00117 ± 0.0032 and 0.000857 ± 0.0069, respectively.
In the case of “GGAGACGAUACUAUACAACCUACUACCUCG [g2:g24:cont:t1G]”, the “pre-steady-state target cleavage rate” value came to 0.183 ± 0.014 in assay [1], 1.1 ± 0.063 in assay [2] and 0.115 ± 0.037 in assay [3].
Take GGAGACCUAUGAUAUCUACGUACUACCUCA: the “pre-steady-state target cleavage rate” value in assay [1] came to 0.000255 ± 0.008; in assay [2] it was 0.000185 ± 0.0096; in assay [3] it was 0.00023 ± 0.011.
In the same order, the values of GGAGACCUAUGUAUACAACGCUACUACCUCA are 0.000995 ± 0.0071, 0.000212 ± 0.0097 and 0.00105 ± 0.007.
The matching figures for GGAGACCUAUGUAUACAACGUACUACCACA: 0.00942 ± 0.003, 0.00149 ± 0.0042 and 0.00135 ± 0.0095.
The matching figures for GGAGACCAUACUAUACAACCGUACUACCUCA: 0.00349 ± 0.004, 0.000532 ± 0.011 and 0.00209 ± 0.0042.
Turning to GGAGACCUAUGAUAUCAACCAUGUACCUCA, the “pre-steady-state target cleavage rate” value in assay [1] worked out at 0.000325 ± 0.019; in assay [2] it was 0.000535 ± 0.008; in assay [3] it was 0.000102 ± 0.021.
The matching figures for GGAGACCUAUGUAUACAUACCUACUACCUCA: 0.00105 ± 0.008, 0.000655 ± 0.012 and 0.000338 ± 0.011.
In the same order, the values of GGAGACCUAUGAUUACAUCCUAGUACCUCA are 0.00204 ± 0.0037, 0.000779 ± 0.0052 and 0.00052 ± 0.0062.
As to GGAGACCUAUGUAUACAACGUACUAGCUCA, the “pre-steady-state target cleavage rate” value in assay [1] is 0.00195 ± 0.0035; in assay [2], 0.000413 ± 0.009; in assay [3] it was 0.00197 ± 0.004.
As for GGAGACCUAUGAUAUGUUGCUUCUACCACA, the “pre-steady-state target cleavage rate” value in assay [1] was 0.000338 ± 0.019; in assay [2], 0.000446 ± 0.013; in assay [3], 0.000227 ± 0.0087.
The matching figures for GGAGACCUAUGAUAUCAACCUACUUCGUCA: 0.000123 ± 0.023, 0.000137 ± 0.015 and 0.000108 ± 0.019.
The matching figures for GGAGACCUAUGAUAUCAUCCUAGUACCUCA: 0.000549 ± 0.0098, 0.000116 ± 0.017 and 0.000183 ± 0.014.
The matching figures for GGAGACCUAUGAUUACAACCUACUACCAGA: 0.00204 ± 0.0035, 0.00018 ± 0.012 and 0.00104 ± 0.0071.
On to GGAGUGGAUACUAUACAACCUACUAGCACA, for which the results for the “pre-steady-state target cleavage rate” value in assay [1], in assay [2] and in assay [3] were 0.000822 ± 0.0055, 0.000709 ± 0.0059 and 0.00246 ± 0.0018, respectively.
Consider GGAGACCUAUGAUAACUUCCUACUACCUCA, for which the “pre-steady-state target cleavage rate” value in assay [1] was 0.000493 ± 0.0071; in assay [2] it was 0.000262 ± 0.0077; in assay [3], 0.000314 ± 0.0086.
In the same order, the values of GGAGACCUAUGAUUACAUCGUACUACCUCA are 0.0019 ± 0.0035, 0.00102 ± 0.0044 and 0.00113 ± 0.0058.
The matching figures for GGAGACCUAUGAUAUGUUCCAACUACCACA: 0.000404 ± 0.015, 0.000237 ± 0.011 and 0.00012 ± 0.018.
The matching figures for GGAGACCUAUGAUUACAACCAACUUCCUCA: 0.00254 ± 0.0035, 0.000427 ± 0.0052 and 0.000345 ± 0.011.
